No constants are given. Whether binding was seen depends on the method and setting.
How the values were obtained:
[1] = target: 6×His–PYK2 KFL_(761–839) (human) (UniProt Q14289); test: MST; labelled 6×His protein at 50 nM, unlabelled protein serially diluted; 20 mM HEPES, 200 mM NaCl, 1 mM DTT, pH 6.5; dimer to monomers; both purified
[2] = target: 6×His–FAK KFL_(804–832) (human) (UniProt Q05397); test: as above

Sequences of proteins named here, by UniProt entry; tags and fusion partners are left off. Residues count along the entry.
UniProt Q05397, residues 804-832: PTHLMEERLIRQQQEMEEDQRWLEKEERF

binding [1]	binding [2]	Substance
no binding		6×His–PYK2 KFL_(761–839) (from UniProt Q14289 761-839) (domain or fragment)
	no binding	6×His–FAK KFL_(804–832) (from UniProt Q05397 804-832) (domain or fragment)

From paper PMC9363500 (Communications Biology, 2022)
